In paper PMC10699776:
These are yes or no findings as the source states them, for the method shown. Binding seen in cells or lysates may run through a third protein. Here binding means that the protein was enriched with, or labelled near, the bait; the list need not be complete.

Chains of the proteins cited; added tags and fusions are not shown. Lines headed by an entry give the natural chain unless they say otherwise; changes in a name come on top. Residues count along the entry.
UniProt P63165, residues 1-97: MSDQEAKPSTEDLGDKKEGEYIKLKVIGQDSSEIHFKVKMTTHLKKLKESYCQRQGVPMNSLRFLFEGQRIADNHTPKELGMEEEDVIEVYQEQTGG
UniProt P55854, residues 1-92: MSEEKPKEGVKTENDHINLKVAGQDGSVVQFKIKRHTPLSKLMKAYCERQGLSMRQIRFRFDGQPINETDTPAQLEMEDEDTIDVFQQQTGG
UniProt P61956: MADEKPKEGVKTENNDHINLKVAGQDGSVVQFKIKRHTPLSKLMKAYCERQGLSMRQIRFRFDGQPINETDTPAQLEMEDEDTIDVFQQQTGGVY

T1: mCherry-RAD54L2^WT (UniProt Q9Y4B4)
T1 sequence: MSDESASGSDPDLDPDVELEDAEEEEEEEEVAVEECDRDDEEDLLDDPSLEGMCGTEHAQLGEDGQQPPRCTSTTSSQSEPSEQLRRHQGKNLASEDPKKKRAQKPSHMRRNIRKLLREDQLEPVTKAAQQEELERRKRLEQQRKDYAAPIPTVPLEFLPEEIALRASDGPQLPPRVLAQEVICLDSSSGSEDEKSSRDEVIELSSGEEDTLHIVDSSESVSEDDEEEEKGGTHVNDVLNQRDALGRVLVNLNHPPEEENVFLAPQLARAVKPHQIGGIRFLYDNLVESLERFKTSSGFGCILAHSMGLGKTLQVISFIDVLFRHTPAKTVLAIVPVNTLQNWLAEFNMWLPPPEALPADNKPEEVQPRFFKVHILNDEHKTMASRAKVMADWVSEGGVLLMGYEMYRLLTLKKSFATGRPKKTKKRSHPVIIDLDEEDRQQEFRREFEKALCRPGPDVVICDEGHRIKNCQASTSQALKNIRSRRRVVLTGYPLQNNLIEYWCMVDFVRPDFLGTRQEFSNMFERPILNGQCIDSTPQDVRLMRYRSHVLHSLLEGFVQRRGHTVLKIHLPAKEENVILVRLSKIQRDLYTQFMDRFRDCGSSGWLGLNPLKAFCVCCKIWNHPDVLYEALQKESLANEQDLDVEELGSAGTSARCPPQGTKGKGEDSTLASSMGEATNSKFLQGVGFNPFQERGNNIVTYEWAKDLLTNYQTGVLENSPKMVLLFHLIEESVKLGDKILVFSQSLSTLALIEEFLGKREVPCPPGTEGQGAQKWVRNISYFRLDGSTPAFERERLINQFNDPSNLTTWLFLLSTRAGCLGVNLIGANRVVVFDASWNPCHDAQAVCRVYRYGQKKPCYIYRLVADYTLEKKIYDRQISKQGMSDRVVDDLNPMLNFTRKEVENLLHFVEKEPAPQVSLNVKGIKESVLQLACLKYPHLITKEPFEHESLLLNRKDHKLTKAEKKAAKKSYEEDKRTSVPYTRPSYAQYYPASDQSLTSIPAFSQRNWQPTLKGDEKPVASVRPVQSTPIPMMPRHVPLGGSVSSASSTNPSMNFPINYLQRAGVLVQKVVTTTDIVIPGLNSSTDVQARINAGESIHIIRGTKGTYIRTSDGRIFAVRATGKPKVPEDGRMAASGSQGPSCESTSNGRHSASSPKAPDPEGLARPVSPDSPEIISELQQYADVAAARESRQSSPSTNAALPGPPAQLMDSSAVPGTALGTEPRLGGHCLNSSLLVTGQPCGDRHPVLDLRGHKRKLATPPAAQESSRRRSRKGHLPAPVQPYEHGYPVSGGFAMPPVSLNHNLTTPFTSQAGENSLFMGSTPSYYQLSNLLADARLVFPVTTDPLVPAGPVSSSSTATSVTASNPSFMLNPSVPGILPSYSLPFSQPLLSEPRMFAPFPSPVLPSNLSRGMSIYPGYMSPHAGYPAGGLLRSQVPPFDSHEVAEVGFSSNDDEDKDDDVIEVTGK

B1: zinc finger protein associated with TDP2 and TOP2 (ZATT/ZNF451) (enzyme, UniProt Q9Y4E5 1-1061)
chain: MGDPGSEIIESVPPAGPEASESTTDENEDDIQFVSEGPLRPVLEYIDLVSSDDEEPSTSYTDENIKRKDHIDYQKDKVALTLARLARHVEVEKQQKEEKNRAFREKIDFQHAHGLQELEFIRGHSDTEAARLCVDQWLKMPGLKTGTINCGTKSSFRRGGHTWVSGKPILCPIMHCNKEFDNGHLLLGHLKRFDHSPCDPTITLHGPFFSSFACVVCYKKFVTQQQYRDHLFDKEATDDGHNNNLLPQIIQCFACPNCFLLFSRKEECSKHMSGKNHFHQSFKLGDNKGIAHPISFPSFAKKLLISLCKDVPFQVKCVACHKTLRSHMELTAHFRVHCRNAGPVAVAEKSITQVAEKFILRGYCPDCNQVFVDETSTQNHKQNSGHKVRVINSVEESVLLYCHSSEGNKDPSSDLHLLLDQSKFSSLKRTMSIKESSSLECIAIPKKKMNLKDKSHEGVACVQKEKSVVKTWFCECNQRFPSEDAVEKHVFSANTMGYKCVVCGKVCDDSGVIRLHMSRIHGGAHLNNFLFWCRTCKKELTRKDTIMAHVTEFHNGHRYFYEMDEVEGETLPSSSTTLDNLTANKPSSAITVIDHSPANSSPRGKWQCRICEDMFDSQEYVKQHCMSLASHKFHRYSCAHCRKPFHKIETLYRHCQDEHDNEIKIKYFCGLCDLIFNVEEAFLSHYEEHHSIDYVFVSEKTETSIKTEDDFPVIETSNQLTCGCRESYICKVNRKEDYSRCLQIMLDKGKLWFRCSLCSATAQNLTDMNTHIHQVHKEKSDEEEQQYVIKCGTCTKAFHDPESAQQHFHRKHCFLQKPSVAHFGSEKSNLYKFTASASHTERKLKQAINYSKSLDMEKGVENDLSYQNIEEEIVELPDLDYLRTMTHIVFVDFDNWSNFFGHLPGHLNQGTFIWGFQGGNTNWKPPLNCKIYNYLNRIGCFFLHPRCSKRKDAADFAICMHAGRLDEQLPKQIPFTILSGDQGFLELENQFKKTQRPAHILNPHHLEGDMMCALLNSISDTTKECDSDDNMGAKNTSIGEEFISTEDVELEEAIRRSLEEM

What follows are molecules tested against T1, mCherry-RAD54L2^WT (assay: affinity purification with mass spectrometry; mCherry-RAD54L2 precipitated on RFP-Trap magnetic beads from extracts of RPE-1 cells, untreated or etoposide-treated; bound proteins digested in-gel, label-free quantitation against mCherry alone).
SUMO1 (from UniProt P63165 1-97) was tested, and the binding was “binds”.
With SUMO3 (from UniProt P55854 1-92) the binding was “binds”.
SUMO2 (from UniProt P61956) was tested, and the binding was “binds”.
In the case of B1, the binding is reported as “binds”.
